Experimental data published in the supplement of paper PMC7646827.
Single values are uncertain, as repeats are few or missing.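 All cells are established human bladder cancer lines, one of them grown from a patient-derived xenograft. Viability was read by a luminescent ATP assay as percent inhibition versus vehicle over a seven-point dilution series; the paper calls scores above 59 very active, 30–59 active, 21–29 semi-active, 9–20 low active and below 9 inactive.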

How the values were obtained:
Assay in all cases: drug sensitivity score DSS3 (score 0-100); higher = more sensitive; extreme values may be limits of the assay
Conditions in all cases: culture: 3D, ultra-low attachment; treatment time: 5 days
UM-UC-13 = system: UM-UC-13
UM-UC-1 = system: UM-UC-1
TCCSUP = system: TCCSUP
UM-UC-9 = system: UM-UC-9
UM-UC-14 = system: UM-UC-14
UM-UC-15 = system: UM-UC-15
UM-UC-12 = system: UM-UC-12
UM-UC-18 = system: UM-UC-18
T-24 = system: T-24
BC8149 = system: BC8149
SCaBER = system: SCaBER
UM-UC-6 = system: UM-UC-6
5637 = system: 5637
UM-UC-17 = system: UM-UC-17
UM-UC-3 = system: UM-UC-3
SW780 = system: SW780
UM-UC-5 = system: UM-UC-5
J82 = system: J82

SMILES | drug sensitivity score DSS3 (UM-UC-13) | drug sensitivity score DSS3 (UM-UC-1) | drug sensitivity score DSS3 (TCCSUP) | drug sensitivity score DSS3 (UM-UC-9) | drug sensitivity score DSS3 (UM-UC-14) | drug sensitivity score DSS3 (UM-UC-15) | drug sensitivity score DSS3 (UM-UC-12) | drug sensitivity score DSS3 (UM-UC-18) | drug sensitivity score DSS3 (T-24) | drug sensitivity score DSS3 (BC8149) | drug sensitivity score DSS3 (SCaBER) | drug sensitivity score DSS3 (UM-UC-6) | drug sensitivity score DSS3 5637 | drug sensitivity score DSS3 (UM-UC-17) | drug sensitivity score DSS3 (UM-UC-3) | drug sensitivity score DSS3 (SW780) | drug sensitivity score DSS3 (UM-UC-5) | drug sensitivity score DSS3 (J82)
O=C(NC[C@H](O)CO)c1ccncc1Nc1ccc(I)cc1F [Pimasertib] (max dose 10000 nM) | 25.6 |  |  |  |  |  |  |  |  |  |  |  |  |  |  |  |  | 
O=C(NOCC1CC1)c1ccc(F)c(F)c1Nc1ccc(I)cc1Cl (max dose 10000 nM) | 6.89 | 2.45 | 4.23 | 0 | 1.69 | 8.11 | 2.58 | 0 | 5.29 | 1.17 | 7.73 | 0 | 1.78 | 0 | 4.03 | 0 | 0 | 0.167
COc1cc(F)c(F)c(Nc2ccc(I)cc2F)c1NS(=O)(=O)C1(C[C@H](O)CO)CC1 [Refametinib] (max dose 10000 nM) | 16 |  |  |  |  |  |  |  |  |  |  |  |  |  |  |  |  | 
O=C(NOC[C@H](O)CO)c1ccc(F)c(F)c1Nc1ccc(I)cc1F (max dose 10000 nM) | 23.6 | 8.89 | 5.27 | 0.705 | 2.22 | 0 |  | 0 | 7.74 | 12.7 | 37.3 | 0 | 5.93 | 0 | 29.3 | 0 | 43.7 | 0.521
CC(=O)Nc1cccc(-n2c(=O)n(C3CC3)c(=O)c3c(Nc4ccc(I)cc4F)n(C)c(=O)c(C)c32)c1 [Trametinib] (max dose 10000 nM) | 68.1 |  |  |  |  |  |  |  |  |  |  |  |  |  |  |  |  | 
Cn1c(=O)c(F)c(Nc2ccc(I)cc2F)c2c(=O)n(C[C@@H](O)CO)cnc21 [TAK-733] (max dose 10000 nM) | 45 | 13.1 | 13.9 | 0.418 | 11 | 9.94 | 5.8 | 0 | 17.4 | 4.49 | 36.9 | 3.96 | 15.5 | 0.379 | 19.1 | 0.19 | 59.3 | 0.837
Cn1cnc2c(F)c(Nc3ccc(Br)cc3Cl)c(C(=O)NOCCO)cc21 [Selumetinib] (max dose 10000 nM) | 7.43 |  |  |  |  |  |  |  |  |  |  |  |  |  |  |  |  | 
O=C(c1ccc(F)c(F)c1Nc1ccc(I)cc1F)N1CC(O)([C@@H]2CCCCN2)C1 [Cobimetinib] (max dose 10000 nM) | 36.4 |  |  |  |  |  |  |  |  |  |  |  |  |  |  |  |  | 
COc1cc(OCc2cccc(-c3ccccc3)c2C)cc(OC)c1CN1CCCC[C@H]1C(=O)O [PD-1/PD-L1 inhibitor 1] (max dose 10000 nM) |  | 0 | 0 | 0 | 0 | 1.12 | 0 | 0 | 0 | 0 | 0 | 0 | 0 | 0 | 0 | 0 | 0 | 0
Fc1cc(-c2cccc3ncc(-c4cnn(C5CCNCC5)c4)nc23)cc(F)c1CN1CCOCC1 [NVP-BSK805 2HCl] (max dose 10000 nM) |  | 2.05 | 0 | 0.711 | 0.983 | 0 | 1.82 | 1.35 | 0 | 0.225 | 2.41 | 0 | 2.55 | 0.601 | 0 | 2.15 | 0 | 0
Cc1ccc(Nc2c(F)cccc2Cl)c(CC(=O)O)c1 [Lumiracoxib] (max dose 10000 nM) |  | 0 | 0 | 0 | 0 | 0 | 0 | 0 | 0 | 0 | 0 | 0 | 0 | 0 | 0 | 0.38 | 0 | 0
COc1cc2nccc(Oc3ccc(NC(=O)C4(C(=O)Nc5ccc(F)cc5)CC4)cc3)c2cc1OC [Cabozantinib] (max dose 10000 nM) |  | 1.81 | 6.82 | 0 | 0 | 0 | 2.09 | 0 | 0 | 0 | 1.25 | 0.491 | 0 | 0 | 0 | 1.12 | 0 | 1.15

Single values from the list.
Value for Fc1cc(-c2cccc3ncc(-c4cnn(C5CCNCC5)c4)nc23)cc(F)c1CN1CCOCC1 [NVP-BSK805 2HCl] (max dose 10000 nM) under drug sensitivity score DSS3 (UM-UC-3): 0
Value for CC(=O)Nc1cccc(-n2c(=O)n(C3CC3)c(=O)c3c(Nc4ccc(I)cc4F)n(C)c(=O)c(C)c32)c1 [Trametinib] (max dose 10000 nM) under drug sensitivity score DSS3 (UM-UC-13): 68.1
